The text below walks through data of publication PMC7721737, “Cytosolic sequestration of the vitamin D receptor as a therapeutic option for vitamin D-induced hypercalcemia” (Nature Communications, 2020).

Chains of the proteins cited; added tags and fusions are not shown.
UniProt F1LNJ2: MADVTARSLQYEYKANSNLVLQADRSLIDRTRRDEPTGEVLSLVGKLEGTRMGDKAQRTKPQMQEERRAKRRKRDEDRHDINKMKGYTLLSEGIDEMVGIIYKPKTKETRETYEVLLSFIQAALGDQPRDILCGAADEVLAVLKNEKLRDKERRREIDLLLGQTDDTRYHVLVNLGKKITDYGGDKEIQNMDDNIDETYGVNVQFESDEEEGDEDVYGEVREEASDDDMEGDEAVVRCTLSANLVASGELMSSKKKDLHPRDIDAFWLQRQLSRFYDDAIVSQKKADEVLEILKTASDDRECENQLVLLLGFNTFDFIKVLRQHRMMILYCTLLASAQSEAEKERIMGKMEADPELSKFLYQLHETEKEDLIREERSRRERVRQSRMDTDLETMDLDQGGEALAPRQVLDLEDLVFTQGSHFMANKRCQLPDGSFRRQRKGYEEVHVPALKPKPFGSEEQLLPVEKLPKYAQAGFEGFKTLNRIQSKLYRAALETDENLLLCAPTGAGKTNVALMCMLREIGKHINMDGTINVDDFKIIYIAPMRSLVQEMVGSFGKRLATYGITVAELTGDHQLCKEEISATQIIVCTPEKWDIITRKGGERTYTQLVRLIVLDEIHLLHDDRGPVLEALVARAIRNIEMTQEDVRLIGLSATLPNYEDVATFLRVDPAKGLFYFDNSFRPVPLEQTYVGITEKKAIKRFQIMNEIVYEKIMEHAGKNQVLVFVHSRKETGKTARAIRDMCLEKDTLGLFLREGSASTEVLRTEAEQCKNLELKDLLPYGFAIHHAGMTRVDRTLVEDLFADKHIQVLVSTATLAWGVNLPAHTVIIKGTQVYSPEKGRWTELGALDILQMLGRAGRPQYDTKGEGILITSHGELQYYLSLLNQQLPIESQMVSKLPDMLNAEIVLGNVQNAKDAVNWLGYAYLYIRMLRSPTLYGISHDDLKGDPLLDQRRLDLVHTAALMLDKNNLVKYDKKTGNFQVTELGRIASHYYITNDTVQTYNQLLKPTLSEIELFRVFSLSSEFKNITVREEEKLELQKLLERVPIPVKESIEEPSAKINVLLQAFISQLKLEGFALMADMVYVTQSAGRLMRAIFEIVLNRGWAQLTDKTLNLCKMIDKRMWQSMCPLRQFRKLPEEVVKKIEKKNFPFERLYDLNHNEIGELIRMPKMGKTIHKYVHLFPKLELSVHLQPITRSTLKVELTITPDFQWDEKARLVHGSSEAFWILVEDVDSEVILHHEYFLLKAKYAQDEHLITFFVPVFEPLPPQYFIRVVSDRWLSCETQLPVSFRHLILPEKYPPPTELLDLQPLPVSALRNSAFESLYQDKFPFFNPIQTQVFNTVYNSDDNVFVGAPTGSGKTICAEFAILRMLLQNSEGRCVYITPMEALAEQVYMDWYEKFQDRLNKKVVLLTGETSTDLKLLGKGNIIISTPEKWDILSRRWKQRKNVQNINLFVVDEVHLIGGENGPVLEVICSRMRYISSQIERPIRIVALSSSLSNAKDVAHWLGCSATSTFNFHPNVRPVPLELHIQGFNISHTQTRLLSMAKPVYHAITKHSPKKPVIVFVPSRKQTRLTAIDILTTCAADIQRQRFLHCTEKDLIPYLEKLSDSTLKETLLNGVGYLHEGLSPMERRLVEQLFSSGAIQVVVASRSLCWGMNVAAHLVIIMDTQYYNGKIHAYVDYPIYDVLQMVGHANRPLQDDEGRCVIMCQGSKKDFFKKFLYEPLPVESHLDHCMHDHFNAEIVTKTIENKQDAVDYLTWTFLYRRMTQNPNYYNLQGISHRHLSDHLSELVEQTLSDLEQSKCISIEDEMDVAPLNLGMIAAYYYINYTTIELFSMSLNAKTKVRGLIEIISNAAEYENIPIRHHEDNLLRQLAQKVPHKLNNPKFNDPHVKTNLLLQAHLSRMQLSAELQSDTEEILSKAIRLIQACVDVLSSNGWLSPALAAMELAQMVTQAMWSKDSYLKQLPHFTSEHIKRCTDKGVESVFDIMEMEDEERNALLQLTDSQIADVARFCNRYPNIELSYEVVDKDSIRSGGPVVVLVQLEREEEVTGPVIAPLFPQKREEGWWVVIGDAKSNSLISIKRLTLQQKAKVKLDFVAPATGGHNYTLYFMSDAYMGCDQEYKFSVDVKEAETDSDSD

For test [1], the target named is T1, vitamin D receptor, endogenous in IEC-18 rat intestinal epithelial cells (rat (endogenous in IEC-18)) (UniProt P13053).
T1 sequence: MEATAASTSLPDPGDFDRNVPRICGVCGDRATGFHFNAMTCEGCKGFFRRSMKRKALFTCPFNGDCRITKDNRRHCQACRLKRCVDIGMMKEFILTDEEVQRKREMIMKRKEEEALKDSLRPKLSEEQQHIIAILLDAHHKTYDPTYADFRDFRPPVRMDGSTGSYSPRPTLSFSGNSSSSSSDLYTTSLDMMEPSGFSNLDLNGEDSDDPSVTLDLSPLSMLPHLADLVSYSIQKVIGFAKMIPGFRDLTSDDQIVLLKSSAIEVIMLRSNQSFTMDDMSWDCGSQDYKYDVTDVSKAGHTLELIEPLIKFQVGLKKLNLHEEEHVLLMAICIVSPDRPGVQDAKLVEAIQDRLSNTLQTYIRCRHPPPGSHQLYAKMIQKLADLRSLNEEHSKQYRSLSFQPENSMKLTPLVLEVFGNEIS
Put plainly: affinity purification with mass spectrometry; anti-VDR immunoprecipitation of cytosolic extracts of IEC-18 cells treated for 1.5 h with 100 nM 1,25D3 and 1 µM ZK (compared to vehicle); IgG as negative control.

Test [2] addresses T1, vitamin D receptor, endogenous in IEC-18 rat intestinal epithelial cells (rat (endogenous in IEC-18)). Put plainly: condition: only cells treated with 100 nM 1,25D3 alone; affinity purification with mass spectrometry; anti-VDR immunoprecipitation of cytosolic extracts of IEC-18 cells treated for 1.5 h with 100 nM 1,25D3 alone.

Results are given in words; binding and its absence hold for the method and conditions named. In cells and extracts the contact can be indirect. Here binding means that the protein was enriched with, or labelled near, the bait; the list need not be complete. No binding means not detected with the bait.

For “BRR2, endogenous in IEC-18 cells (from UniProt F1LNJ2 1-2139)”, the binding entry in test [1] is listed as “no binding”.

B1: WBP4, endogenous in IEC-18 rat intestinal epithelial cells (protein, UniProt Q5HZF2 1-374)
chain: MADYWKSQPKKFCDYCKCWIADNRPSVEFHERGKNHKENVARKISEIKQKSLDKAKEEEKASKEFAAMEAAALKAYQEDLKRLGLQSDISEPTISPVTNTVQPTPTANQQKEKKKKKKKKEASKGRWVEGVTADGHCYYYDLVTGASQWEKPEGFQGNLKKTAAKAIWVEGLSEDGYTYYYNTETGESKWEKPDDFIPHGGDVLSSKDSEKLPDTLEDSKSSDSHSDSDDEQKKAGEASAETKKLIIKFKEKNKSTEKRIGPEIQKEKTTPKQNPSNTNEEKPKTPKKSTNPYGEWQEIKQEAESQEEVDLELPSTENECLSSSEAGAGEIKVVFKEKTVSSLGVAADGVAPVFKKRRIENGKSRNLRQRGEDE
Consider B1, for which the binding entry is on record as “binds” in test [1] and “no binding” in test [2].
